Compound in the experiment: CC1Cc2ccccc2N1C(=O)C1CCCN(C1)C(=O)CCl (mixture of isomers) [TRIM25 ligand 11 (diastereomer mixture)]
In words: probe-labelled cysteine peptide fold change vs DMSO (competition) (log2 fold change); higher = less target engagement (more negative = stronger competition). The following applies: THP-1, incubation time: 4 h.

Amino acid sequences for entries named in this document (tags omitted). A change or cut given only in a name is not applied to a line headed by its entry.
UniProt Q13129: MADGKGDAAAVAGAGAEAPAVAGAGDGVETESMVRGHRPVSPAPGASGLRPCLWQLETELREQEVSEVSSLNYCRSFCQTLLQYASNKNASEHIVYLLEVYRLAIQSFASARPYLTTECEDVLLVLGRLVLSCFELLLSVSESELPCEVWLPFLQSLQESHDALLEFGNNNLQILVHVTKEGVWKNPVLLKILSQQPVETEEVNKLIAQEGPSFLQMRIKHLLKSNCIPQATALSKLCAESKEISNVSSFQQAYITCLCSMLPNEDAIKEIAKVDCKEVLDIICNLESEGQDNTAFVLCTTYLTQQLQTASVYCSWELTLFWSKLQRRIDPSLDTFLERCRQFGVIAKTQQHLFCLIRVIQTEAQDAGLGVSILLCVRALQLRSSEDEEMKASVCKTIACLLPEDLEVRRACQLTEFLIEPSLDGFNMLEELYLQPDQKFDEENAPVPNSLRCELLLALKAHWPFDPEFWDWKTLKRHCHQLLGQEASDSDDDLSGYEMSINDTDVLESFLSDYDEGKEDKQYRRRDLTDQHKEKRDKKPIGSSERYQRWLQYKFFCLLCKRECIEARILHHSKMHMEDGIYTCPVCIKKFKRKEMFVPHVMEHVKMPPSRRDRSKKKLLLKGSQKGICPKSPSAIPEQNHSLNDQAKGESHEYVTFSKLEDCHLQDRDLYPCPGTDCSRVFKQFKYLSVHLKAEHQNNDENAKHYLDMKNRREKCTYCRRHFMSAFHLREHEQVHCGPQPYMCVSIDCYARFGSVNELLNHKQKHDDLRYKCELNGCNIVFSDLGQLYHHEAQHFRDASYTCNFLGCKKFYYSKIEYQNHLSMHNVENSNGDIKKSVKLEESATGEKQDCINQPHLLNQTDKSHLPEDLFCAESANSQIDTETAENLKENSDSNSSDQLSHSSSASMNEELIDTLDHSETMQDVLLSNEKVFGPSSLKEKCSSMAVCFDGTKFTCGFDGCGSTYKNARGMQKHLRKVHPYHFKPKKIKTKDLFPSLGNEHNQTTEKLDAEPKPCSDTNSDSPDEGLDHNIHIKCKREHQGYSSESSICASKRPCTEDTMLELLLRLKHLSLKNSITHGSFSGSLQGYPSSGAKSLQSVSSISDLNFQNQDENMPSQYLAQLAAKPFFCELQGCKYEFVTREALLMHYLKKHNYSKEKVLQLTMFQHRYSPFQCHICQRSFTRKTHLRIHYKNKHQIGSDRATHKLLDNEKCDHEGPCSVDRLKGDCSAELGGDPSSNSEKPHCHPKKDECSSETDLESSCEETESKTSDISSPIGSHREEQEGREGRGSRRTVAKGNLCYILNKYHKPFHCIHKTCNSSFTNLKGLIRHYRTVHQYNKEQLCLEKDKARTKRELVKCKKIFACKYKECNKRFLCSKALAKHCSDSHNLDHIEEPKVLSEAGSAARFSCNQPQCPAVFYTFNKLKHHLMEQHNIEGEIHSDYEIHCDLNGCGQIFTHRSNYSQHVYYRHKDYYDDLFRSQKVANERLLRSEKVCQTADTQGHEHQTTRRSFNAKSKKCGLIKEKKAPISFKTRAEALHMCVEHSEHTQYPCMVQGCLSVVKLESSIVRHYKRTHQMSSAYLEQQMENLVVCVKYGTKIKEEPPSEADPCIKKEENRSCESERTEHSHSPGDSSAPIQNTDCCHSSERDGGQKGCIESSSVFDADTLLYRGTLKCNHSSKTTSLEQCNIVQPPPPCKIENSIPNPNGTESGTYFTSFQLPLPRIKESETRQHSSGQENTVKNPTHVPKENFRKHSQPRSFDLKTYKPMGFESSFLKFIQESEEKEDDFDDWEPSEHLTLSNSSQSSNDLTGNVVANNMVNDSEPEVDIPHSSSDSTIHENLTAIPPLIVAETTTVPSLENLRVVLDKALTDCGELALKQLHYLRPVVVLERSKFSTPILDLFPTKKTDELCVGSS
UniProt Q9HBH5: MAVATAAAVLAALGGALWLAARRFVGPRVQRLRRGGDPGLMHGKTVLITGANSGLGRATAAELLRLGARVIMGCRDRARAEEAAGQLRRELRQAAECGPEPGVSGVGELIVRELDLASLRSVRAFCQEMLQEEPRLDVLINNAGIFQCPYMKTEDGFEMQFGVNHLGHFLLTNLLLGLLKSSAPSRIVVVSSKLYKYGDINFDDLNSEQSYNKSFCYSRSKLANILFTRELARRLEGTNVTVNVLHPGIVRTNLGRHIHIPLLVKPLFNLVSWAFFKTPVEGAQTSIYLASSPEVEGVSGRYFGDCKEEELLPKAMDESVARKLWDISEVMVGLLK
UniProt P40938, whole entry, looked up: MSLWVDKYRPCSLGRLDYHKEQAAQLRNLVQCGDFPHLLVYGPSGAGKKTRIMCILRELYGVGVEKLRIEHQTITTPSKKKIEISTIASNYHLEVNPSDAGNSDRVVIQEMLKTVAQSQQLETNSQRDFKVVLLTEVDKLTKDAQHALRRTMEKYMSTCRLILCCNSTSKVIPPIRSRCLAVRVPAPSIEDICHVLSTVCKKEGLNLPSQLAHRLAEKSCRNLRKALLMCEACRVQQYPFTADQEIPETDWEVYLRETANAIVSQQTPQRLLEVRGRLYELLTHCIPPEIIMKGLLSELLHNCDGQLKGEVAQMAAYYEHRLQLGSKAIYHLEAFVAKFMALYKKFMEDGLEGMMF
UniProt Q9Y508: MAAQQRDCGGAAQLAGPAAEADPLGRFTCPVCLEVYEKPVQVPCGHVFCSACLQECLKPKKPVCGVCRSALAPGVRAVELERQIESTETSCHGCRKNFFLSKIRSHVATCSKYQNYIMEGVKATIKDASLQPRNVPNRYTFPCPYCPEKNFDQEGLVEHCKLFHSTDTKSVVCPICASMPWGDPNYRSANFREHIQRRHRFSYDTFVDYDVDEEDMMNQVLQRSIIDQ
UniProt Q9BWE0: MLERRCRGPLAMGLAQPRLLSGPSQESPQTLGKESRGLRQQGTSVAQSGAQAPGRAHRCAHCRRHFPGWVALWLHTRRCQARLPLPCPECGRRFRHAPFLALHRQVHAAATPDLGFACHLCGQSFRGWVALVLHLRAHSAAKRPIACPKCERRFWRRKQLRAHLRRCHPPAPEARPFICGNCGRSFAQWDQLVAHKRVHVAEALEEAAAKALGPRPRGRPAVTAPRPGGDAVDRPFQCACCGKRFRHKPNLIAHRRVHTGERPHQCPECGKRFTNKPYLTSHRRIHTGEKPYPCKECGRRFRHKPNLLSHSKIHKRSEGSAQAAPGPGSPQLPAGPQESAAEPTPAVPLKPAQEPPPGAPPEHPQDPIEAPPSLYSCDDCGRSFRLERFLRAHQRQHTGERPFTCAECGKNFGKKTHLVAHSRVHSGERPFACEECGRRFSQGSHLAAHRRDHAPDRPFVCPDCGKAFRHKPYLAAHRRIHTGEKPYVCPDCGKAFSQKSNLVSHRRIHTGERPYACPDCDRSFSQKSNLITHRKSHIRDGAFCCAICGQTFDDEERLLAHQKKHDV
UniProt Q969G6: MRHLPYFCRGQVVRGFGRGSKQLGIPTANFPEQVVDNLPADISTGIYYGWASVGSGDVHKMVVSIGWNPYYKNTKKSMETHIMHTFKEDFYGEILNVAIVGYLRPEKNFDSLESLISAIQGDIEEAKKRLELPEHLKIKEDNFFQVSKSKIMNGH
UniProt P84095: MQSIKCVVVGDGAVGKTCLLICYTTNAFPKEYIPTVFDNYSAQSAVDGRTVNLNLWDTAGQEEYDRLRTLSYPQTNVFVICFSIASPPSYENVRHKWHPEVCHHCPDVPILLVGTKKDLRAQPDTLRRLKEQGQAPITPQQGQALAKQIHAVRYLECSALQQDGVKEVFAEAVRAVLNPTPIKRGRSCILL
UniProt Q9P260: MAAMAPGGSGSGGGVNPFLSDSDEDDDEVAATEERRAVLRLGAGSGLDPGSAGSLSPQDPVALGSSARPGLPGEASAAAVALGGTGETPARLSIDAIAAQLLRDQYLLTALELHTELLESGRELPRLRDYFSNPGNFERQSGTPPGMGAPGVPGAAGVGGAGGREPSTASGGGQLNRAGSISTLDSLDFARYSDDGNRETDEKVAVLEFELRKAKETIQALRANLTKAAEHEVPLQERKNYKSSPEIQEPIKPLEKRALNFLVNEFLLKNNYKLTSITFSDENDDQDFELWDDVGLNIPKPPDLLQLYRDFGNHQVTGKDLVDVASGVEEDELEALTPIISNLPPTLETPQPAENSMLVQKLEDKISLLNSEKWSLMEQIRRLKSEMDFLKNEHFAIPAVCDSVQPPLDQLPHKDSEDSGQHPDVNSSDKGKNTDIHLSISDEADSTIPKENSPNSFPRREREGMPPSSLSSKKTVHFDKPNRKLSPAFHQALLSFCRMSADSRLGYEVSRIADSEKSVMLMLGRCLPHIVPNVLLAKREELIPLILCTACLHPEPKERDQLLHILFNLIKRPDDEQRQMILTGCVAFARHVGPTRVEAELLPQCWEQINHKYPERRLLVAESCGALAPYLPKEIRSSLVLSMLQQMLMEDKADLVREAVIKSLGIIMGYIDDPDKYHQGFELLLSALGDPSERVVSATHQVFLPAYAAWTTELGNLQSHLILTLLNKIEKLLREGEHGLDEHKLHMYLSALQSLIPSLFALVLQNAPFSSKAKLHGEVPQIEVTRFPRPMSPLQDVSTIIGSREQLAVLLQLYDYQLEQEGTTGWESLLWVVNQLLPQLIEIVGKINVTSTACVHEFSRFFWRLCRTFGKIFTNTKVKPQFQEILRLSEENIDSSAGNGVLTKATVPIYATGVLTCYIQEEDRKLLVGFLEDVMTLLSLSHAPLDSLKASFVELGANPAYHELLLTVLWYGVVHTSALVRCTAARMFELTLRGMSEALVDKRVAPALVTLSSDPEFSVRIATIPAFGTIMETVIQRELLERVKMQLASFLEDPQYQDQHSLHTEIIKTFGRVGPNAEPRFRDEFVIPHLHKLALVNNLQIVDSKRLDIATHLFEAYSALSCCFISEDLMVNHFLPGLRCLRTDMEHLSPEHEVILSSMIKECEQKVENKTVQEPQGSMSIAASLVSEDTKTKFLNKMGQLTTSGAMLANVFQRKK
UniProt P51606: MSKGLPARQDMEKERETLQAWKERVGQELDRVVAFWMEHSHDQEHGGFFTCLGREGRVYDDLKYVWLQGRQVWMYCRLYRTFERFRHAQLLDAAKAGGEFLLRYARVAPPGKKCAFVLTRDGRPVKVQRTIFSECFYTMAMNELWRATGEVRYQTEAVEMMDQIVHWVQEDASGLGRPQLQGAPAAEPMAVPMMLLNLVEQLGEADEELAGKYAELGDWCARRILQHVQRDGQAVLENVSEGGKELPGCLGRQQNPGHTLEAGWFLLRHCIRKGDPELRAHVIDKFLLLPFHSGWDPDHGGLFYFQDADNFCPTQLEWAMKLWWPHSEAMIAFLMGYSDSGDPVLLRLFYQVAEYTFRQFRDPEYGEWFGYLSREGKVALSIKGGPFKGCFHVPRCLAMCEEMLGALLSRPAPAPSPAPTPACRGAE
UniProt Q9BV68: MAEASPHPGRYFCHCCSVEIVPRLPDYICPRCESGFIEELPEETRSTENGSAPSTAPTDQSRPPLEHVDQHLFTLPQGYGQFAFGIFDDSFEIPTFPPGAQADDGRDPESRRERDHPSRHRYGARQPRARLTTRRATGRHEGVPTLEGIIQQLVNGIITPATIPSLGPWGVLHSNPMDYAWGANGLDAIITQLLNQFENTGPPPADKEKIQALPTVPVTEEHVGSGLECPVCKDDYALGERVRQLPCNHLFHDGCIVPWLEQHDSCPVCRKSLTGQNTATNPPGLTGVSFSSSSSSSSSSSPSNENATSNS
UniProt Q96AA3: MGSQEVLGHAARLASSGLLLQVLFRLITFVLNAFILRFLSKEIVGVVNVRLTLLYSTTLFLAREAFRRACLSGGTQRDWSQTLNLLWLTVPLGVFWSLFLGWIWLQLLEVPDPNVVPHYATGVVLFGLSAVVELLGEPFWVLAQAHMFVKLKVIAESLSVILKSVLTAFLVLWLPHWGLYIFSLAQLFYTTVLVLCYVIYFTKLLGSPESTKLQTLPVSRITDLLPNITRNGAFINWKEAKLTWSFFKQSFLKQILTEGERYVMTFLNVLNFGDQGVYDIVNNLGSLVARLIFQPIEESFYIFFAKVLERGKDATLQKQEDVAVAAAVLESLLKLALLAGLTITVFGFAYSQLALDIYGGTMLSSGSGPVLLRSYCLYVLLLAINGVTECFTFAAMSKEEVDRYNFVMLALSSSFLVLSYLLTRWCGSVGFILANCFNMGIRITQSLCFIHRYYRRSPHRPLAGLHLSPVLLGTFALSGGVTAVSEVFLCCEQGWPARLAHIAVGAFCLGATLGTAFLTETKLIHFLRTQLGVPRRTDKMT
UniProt Q96DB5: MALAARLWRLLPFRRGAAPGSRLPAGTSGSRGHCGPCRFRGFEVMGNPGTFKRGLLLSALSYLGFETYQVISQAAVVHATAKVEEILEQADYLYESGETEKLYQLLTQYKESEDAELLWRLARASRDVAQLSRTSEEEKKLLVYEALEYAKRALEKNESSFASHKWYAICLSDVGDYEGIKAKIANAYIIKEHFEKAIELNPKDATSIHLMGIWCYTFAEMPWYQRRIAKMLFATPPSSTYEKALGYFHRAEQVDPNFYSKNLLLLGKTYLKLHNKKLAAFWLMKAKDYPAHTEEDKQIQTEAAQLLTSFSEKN

Experimental findings from the supplement of paper PMC12067093, “Discovery and optimisation of a covalent ligand for TRIM25 and its application to targeted protein ubiquitination” (Chemical Science, 2025) are described below.

Some of the results follow.
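Note: competitive chemoproteomic profiling in live THP-1 cells with an iodoacetamide desthiobiotin (IA-DTB) probe, comparing probe-labelled peptide intensities in compound-treated cells against DMSO-treated controls.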

As to “RLF_Q13129_1212+1218_CDHEGPCSVDR (UniProt Q13129)”, the “probe-labelled cysteine peptide fold change” value (10 µM) came out at 0.167 and the “probe-labelled cysteine peptide fold change” value (50 µM) came to 0.0424.
Turning to “RICTOR_Q6R327_959_QCEVLSIR (UniProt Q6R327)”, the “probe-labelled cysteine peptide fold change” value by setting is: (10 µM) 0.0442; (50 µM) 0.0763.
For “RLF_Q13129_400_TIACLLPEDLEVRR (UniProt Q13129)”, in that order: 0.0371 and 0.152.
In the same order, the values of RLF_Q13129_1364_KIFACK (UniProt Q13129) are -0.369 and -0.304.
In the same order, the values of “RDH14_Q9HBH5_97_QAAECGPEPGVSGVGELIVR (UniProt Q9HBH5)” are 0.0397 and -0.104.
As to “RFC3_P40938_285_LYELLTHCIPPEIIMK (UniProt P40938)”, the “probe-labelled cysteine peptide fold change” value was 0.168 (10 µM) and -0.117 (50 µM).
As to “REXO2_Q9Y3B8_137_QQTPPGLCPLAGNSVHEDKK (UniProt Q9Y3B8)”, the “probe-labelled cysteine peptide fold change” value by setting is: (10 µM) -0.0253; (50 µM) -0.0731.
For “RIF1_Q5UIP0_1692_DSFDNCSLGESSK (UniProt Q5UIP0)”, in that order: 0.018 and -0.0276.
Regarding “RNF114_Q9Y508_110_SHVATCSK (UniProt Q9Y508)”, the “probe-labelled cysteine peptide fold change” value reads like this: (10 µM) 0.0298; (50 µM) -0.0162.
With “REPIN1_Q9BWE0_433+436_VHSGERPFACEECGR (UniProt Q9BWE0)”, the “probe-labelled cysteine peptide fold change” value (10 µM) stood at 0.371 and the “probe-labelled cysteine peptide fold change” value (50 µM) came out at 0.0948.
In the same order, the values of “RIPK1_Q13546_256_SGNRPDVDDITEYCPR (UniProt Q13546)” are -0.0287 and 0.025.
Turning to “RFC3_P40938_193+200_VPAPSIEDICHVLSTVCK (UniProt P40938)”, the “probe-labelled cysteine peptide fold change” value by setting is: (10 µM) 0.149; (50 µM) 0.0296.
In the same order, the values of “RMND5A_Q9H871_4_MDQCVTVER (UniProt Q9H871)” are 0.105 and -0.00637.
For “RIOK3_O14730_346_AGIPCPTVVLLK (UniProt O14730)”, the “probe-labelled cysteine peptide fold change” value reads like this: (10 µM) 0.0766; (50 µM) 0.179.
In the same order, the values of “RMDN3_Q96TC7_128_CHMEENQR (UniProt Q96TC7)” are 0.0409 and -0.0604.
In the same order, the values of RFK_Q969G6_8_HLPYFCR (UniProt Q969G6) are -0.0301 and 0.03.
“RNF114_Q9Y508_8_DCGGAAQLAGPAAEADPLGR (UniProt Q9Y508)”: the “probe-labelled cysteine peptide fold change” value was 0.00249 (10 µM) and -0.152 (50 µM).
For “RLF_Q13129_663_LEDCHLQDR (UniProt Q13129)”, in that order: 0.175 and 0.0205.
In the same order, the values of “RHOG_P84095_105_WHPEVCHHCPDVPILLVGTKK (UniProt P84095)” are -0.292 and -0.278.
With “RHOG_P84095_102_WHPEVCHHCPDVPILLVGTK (UniProt P84095)”, the “probe-labelled cysteine peptide fold change” value was 0.0121 (10 µM) and -0.0288 (50 µM).
For “RELCH_Q9P260_497_LSPAFHQALLSFCR (UniProt Q9P260)”, in that order: -0.134 and -0.026.
In the same order, the values of “RING1_Q06587_69_FCSDCIVTALR (UniProt Q06587)” are 0.00698 and -0.00266.
In the same order, the values of “RHOG_P84095_102+105_WHPEVCHHCPDVPILLVGTK (UniProt P84095)” are 0.00764 and -0.0445.
For the target “RFC2_P35250_88_TTSILCLAR (UniProt P35250)”, the “probe-labelled cysteine peptide fold change” value reads like this: (10 µM) -0.0728; (50 µM) 0.034.
“RMI1_Q9H9A7_406_SIFSVHCNVPLAHDFTNK (UniProt Q9H9A7)”: the “probe-labelled cysteine peptide fold change” value reads like this: (10 µM) -0.0703; (50 µM) -0.233.
For “RENBP_P51606_114_CAFVLTR (UniProt P51606)”, in that order: -0.0186 and 0.219.
“REPIN1_Q9BWE0_433_VHSGERPFACEECGR (UniProt Q9BWE0)”: the “probe-labelled cysteine peptide fold change” value (10 µM) was -0.0235 and the “probe-labelled cysteine peptide fold change” value (50 µM) came out at 0.0489.
In the same order, the values of “RLF_Q13129_1212_CDHEGPCSVDR (UniProt Q13129)” are 0.08 and 0.0246.
For “RNF114_Q9Y508_64+67_KPVCGVCR (UniProt Q9Y508)”, in that order: -0.0793 and -0.165.
Turning to “RELA_Q04206_109_CIHSFQNLGIQCVK (UniProt Q04206)”, the “probe-labelled cysteine peptide fold change” value by setting is: (10 µM) -0.0343; (50 µM) -0.156.
With “RNF126_Q9BV68_32_CESGFIEELPEETR (UniProt Q9BV68)”, the “probe-labelled cysteine peptide fold change” value reads like this: (10 µM) -0.0236; (50 µM) 0.0256.
For “RFT1_Q96AA3_448_ITQSLCFIHR (UniProt Q96AA3)”, in that order: 0.0645 and 0.201.
Consider “RNASEH2A_O75792_52_GPVLGPMVYAICYCPLPR (UniProt O75792)”, for which the “probe-labelled cysteine peptide fold change” value by setting is: (10 µM) -0.07; (50 µM) 0.0588.
Regarding “RECQL4_O94761_897_RVCMGHER (UniProt O94761)”, the “probe-labelled cysteine peptide fold change” value is -0.133 (10 µM) and -0.156 (50 µM).
With “RNF126_Q9BV68_13+16_YFCHCCSVEIVPR (UniProt Q9BV68)”, the “probe-labelled cysteine peptide fold change” value reads like this: (10 µM) -0.0221; (50 µM) -0.0833.
For the target “RGS14_O43566_496_QTCDIEGLVELLNR (UniProt O43566)”, the “probe-labelled cysteine peptide fold change” value (10 µM) was -0.131 and the “probe-labelled cysteine peptide fold change” value (50 µM) was -0.475.
Take “RMDN1_Q96DB5_170_WYAICLSDVGDYEGIK (UniProt Q96DB5)”: the “probe-labelled cysteine peptide fold change” value (10 µM) was 0.268 and the “probe-labelled cysteine peptide fold change” value (50 µM) was determined as 0.237.
Consider “RENBP_P51606_423_PAPAPSPAPTPACR (UniProt P51606)”, for which the “probe-labelled cysteine peptide fold change” value reads like this: (10 µM) 0.0234; (50 µM) 0.0476.
In the same order, the values of “RFC4_P35249_281_IDGVFAACQSGSFDKLEAVVK (UniProt P35249)” are -0.258 and -0.149.
Regarding “RLF_Q13129_1218_CDHEGPCSVDR (UniProt Q13129)”, the “probe-labelled cysteine peptide fold change” value by setting is: (10 µM) 0.0777; (50 µM) 0.136.
